# According to PubChem BioAssay (Tox21):
# By UniProt entry, the sequences of proteins in these tests, tags left out. Where a name states a change or a piece, a line headed by the entry shows the natural chain unless it says otherwise.
# UniProt P28223, whole entry, looked up: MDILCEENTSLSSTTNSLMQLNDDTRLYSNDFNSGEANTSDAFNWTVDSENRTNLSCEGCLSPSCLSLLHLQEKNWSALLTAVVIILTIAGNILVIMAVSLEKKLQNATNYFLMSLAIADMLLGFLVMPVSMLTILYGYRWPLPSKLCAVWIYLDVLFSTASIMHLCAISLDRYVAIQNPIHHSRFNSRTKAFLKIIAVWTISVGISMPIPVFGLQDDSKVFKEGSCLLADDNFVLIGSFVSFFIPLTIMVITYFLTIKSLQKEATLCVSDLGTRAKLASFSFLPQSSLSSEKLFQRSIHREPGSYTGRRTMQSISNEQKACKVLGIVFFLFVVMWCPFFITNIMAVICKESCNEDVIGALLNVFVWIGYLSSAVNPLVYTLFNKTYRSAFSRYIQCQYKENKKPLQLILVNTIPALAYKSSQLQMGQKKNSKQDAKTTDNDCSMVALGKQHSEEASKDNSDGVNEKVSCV
# UniProt P11229: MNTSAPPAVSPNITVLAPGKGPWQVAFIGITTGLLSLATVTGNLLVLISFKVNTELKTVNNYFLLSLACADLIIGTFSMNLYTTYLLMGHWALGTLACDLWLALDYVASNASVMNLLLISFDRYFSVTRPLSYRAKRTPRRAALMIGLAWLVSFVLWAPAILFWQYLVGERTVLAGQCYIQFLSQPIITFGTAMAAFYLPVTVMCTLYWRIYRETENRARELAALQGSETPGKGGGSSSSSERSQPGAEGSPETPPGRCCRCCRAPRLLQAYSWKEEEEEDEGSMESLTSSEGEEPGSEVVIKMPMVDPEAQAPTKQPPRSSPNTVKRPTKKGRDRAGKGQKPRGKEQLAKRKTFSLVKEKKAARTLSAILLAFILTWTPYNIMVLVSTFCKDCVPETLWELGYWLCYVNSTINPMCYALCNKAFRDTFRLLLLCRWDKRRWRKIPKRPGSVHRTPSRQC
# UniProt P14416, whole entry, looked up: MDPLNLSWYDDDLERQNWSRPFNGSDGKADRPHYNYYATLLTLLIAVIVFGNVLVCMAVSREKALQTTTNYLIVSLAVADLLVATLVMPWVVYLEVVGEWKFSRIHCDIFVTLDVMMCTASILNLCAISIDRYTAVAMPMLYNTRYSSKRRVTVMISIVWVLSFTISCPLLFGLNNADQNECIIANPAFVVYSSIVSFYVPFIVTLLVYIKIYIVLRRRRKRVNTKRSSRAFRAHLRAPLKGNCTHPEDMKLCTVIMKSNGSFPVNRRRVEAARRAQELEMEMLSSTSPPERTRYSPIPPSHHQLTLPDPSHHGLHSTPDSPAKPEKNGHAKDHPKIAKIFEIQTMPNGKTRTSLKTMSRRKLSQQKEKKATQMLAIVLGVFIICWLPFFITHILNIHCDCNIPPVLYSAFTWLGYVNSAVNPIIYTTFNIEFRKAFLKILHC
# “And” between values parts separate entries of the source, which are not always exact repeats. Identical values can stand only once. Inconclusive means that the source gave no clear call. Such entries were picked first, then a sample of the others. For some of these results: A potency beside an inconclusive call is a rough fit, not a confirmed value. A structure can be active in one record and inactive in another. The source made the active and inactive calls. Unless noted, the call rests on the fitted dose curve.
# Experiments:
# [1] = Nuclear factor erythroid 2-related factor 2/antioxidant responsive element (Nrf2/ARE) small molecule agonists: luciferase reporter gene qHTS assay in human keratinocytes (AID 1919969); further: nearly all actives have a fitted effect of over 35% in size; further: potency means the concentration at half of the fitted maximal effect
# [2] = p53 small molecule agonists, cell-based qHTS assay with rat liver microsomes: qHTS cell viability counter screen (AID 1963580); further: nearly all actives have a fitted effect of over 45% in size; further: potency means the concentration at half of the fitted maximal effect
# Method in brief: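 p53RE-bla HCT-116 cells (4,000/well) rested 5 h at 37 C, then given Tox21 compounds in DMSO with rat liver microsomes (0.5 mg/mL final) plus NADPH (0.5 mg/mL final) for 16 h at 37 C. Viability read by CellTiter-Glo luminescence after 30 min at room temperature.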
# [3] = cAMP Responsive Elements (CRE) small molecule antagonists, cell-based qHTS assay (AID 1963591; active means well fitted inhibition curve with a large enough effect in the signal ratio in the repeat runs, not every such curve was filed as active; inconclusive means weak or mixed curves, or effect the other way; the % refers to the signal ratio; further: potency means the concentration at half of the fitted maximal effect; on activity change, negative = inhibition: on the % scale 0 is the no-effect control and ±100 the full control effect); details: CRE-bla HEK293T, beta-lactamase FRET ratio; activity change, negative = inhibition: at 92.4 µM (top of the series) unless noted
# Method in brief: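 Antagonist mode: test compounds are co-incubated with the adenylyl cyclase activator NKH477 (0.25 uM final) on CRE-bla HEK293T cells for 3 h at 37 °C, followed by LiveBLAzer substrate loading.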
# [4] = target: Beta-2 adrenergic receptor (Homo sapiens) (UniProt P07550); experiment: Adrenergic beta2 receptor (ADRB2) small molecule agonists, cell-based qHTS assay (AID 1963593); details: CHO-ADRB2 cells, cAMP HTRF, 30 min; further: potency means the concentration at half of the fitted maximal effect;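 on activation: CHO cells stably overexpressing human ADRB2; on the % scale 0 is the no-effect control and ±100 the full control effect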
# Method in brief: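 CHO cells stably over-expressing ADRB2 were plated overnight at 37C, then dosed with compounds plus a stimulation mix containing 100uM IBMX and 25uM Ro-20-1724 for 0.5hr at room temperature. cAMP was measured by HTRF competition, 1hr.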
# [5] = p53 small molecule agonists, cell-based qHTS assay: qHTS cell viability counter screen (AID 1963581); further: potency means the concentration at half of the fitted maximal effect; nearly all actives have a fitted effect of over 45% in size
# Method in brief: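 Cells: HCT-116 with p53 response element-driven beta-lactamase. Treatment: 16 h, 37 C, compounds in DMSO. Read: CellTiter-Glo luminescence after 30 min RT.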
# [6] = p53 small molecule agonists, cell-based qHTS assay (AID 1963582; active means well fitted activation curve with a large enough effect in the signal ratio in the repeat runs, not every such curve was filed as active; inconclusive means weak or mixed curves; the % refers to the signal ratio; further: potency means the concentration at half of the fitted maximal effect; on activation: on the % scale 0 is the no-effect control and ±100 the full control effect); details: HCT-116 p53RE-bla reporter, beta-lactamase FRET ratio, 16 h; activation: at 66 µM (top of the series) unless noted
# Method in brief: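 Quantitative HTS in p53RE-bla cells: after a 5 h settling period, compounds delivered in DMSO were left on cells for 16 h at 37 C, and reporter induction was measured as fluorescence following 2 h substrate loading.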
# [7] = target: 5-hydroxytryptamine receptor 2A (Homo sapiens) (UniProt P28223); experiment: 5-hydroxytryptamine receptor 2A (HTR2A) small molecule agonists, cell-based qHTS assay (AID 1963587); details: HTR2A-CHO cells, calcium flux fluorescence, agonist mode; activation: at 76.8 µM (top of the series); further: potency means the concentration at half of the fitted maximal effect; nearly all actives have a fitted effect of over 30% in size
# Method in brief: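 HTR2A-CHO cells, plated 18 h at 37 C/5% CO2, dye-loaded 1 h at 37 C; compounds in DMSO added by pin tool (agonist mode). Intracellular calcium flux read as kinetic fluorescence on FDSS over 2 min at 1 s intervals.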
# [8] = cAMP Responsive Elements (CRE) small molecule agonists, cell-based qHTS assay (AID 1963590); details: CRE-bla HEK293T, beta-lactamase FRET ratio, 3 h; activation: at 92.4 µM (top of the series) unless noted; further: potency means the concentration at half of the fitted maximal effect
# Method in brief: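 Agonist mode qHTS in CRE-bla HEK 293T cells: compounds dosed from DMSO for 3 h at 37 C/5% CO2, followed by LiveBLAzer B/G FRET substrate for 2 h at room temperature.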
# [9] = target: Beta-2 adrenergic receptor (Homo sapiens) (UniProt P07550); experiment: Adrenergic beta2 receptor (ADRB2) small molecule antagonists, cell-based qHTS assay (AID 1963592); details: CHO-ADRB2 cells, isoproterenol-stimulated cAMP HTRF ratio, 0.5 h; activity change, negative = inhibition: at 92.4 µM (top of the series) unless noted; further: nearly all actives have a fitted effect of over 50% in size; further: potency means the concentration at half of the fitted maximal effect
# Method in brief: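 Cells (CHO, stable ADRB2 overexpression) incubated 18-20hr at 37C; compounds added from DMSO; agonist mix (1nM isoproterenol, 100uM IBMX, 25uM Ro-20-1724) added; 0.5hr RT; d2-cAMP and anti-cAMP-cryptate added; 1hr RT; 665/615 nm read.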
# [10] = p53 small molecule agonists, cell-based qHTS assay with human liver microsomes: qHTS cell viability counter screen (AID 1963579); further: nearly all actives have a fitted effect of over 45% in size; further: potency means the concentration at half of the fitted maximal effect
# Method in brief: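 HLM-supplemented (0.5 mg/mL final) and NADPH-supplemented (0.5 mg/mL final) p53RE-bla cultures, 4,000 cells per well, were dosed with compounds in DMSO for 16 h at 37 C; luminescent ATP detection (CellTiter-Glo, 30 min, room temperature) quantified surviving cells.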
# [11] = target: Muscarinic acetylcholine receptor M1 (Homo sapiens) (UniProt P11229); experiment: Cholinergic receptor muscarinic 1 (CHRM1) small molecule antagonists, cell-based qHTS assay (AID 1963588); further: potency means the concentration at half of the fitted maximal effect; nearly all actives have a fitted effect of over 40% in size
# Method in brief: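 CHRM1-CHO calcium-flux assay, antagonist mode. Cells were seeded 18 h, dye-loaded 1 h at 37 C and given compound for 5 min at RT, then acetylcholine was added at 50nM. FDSS fluorescence was read 3 min; 15 concentrations, three runs.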
# [12] = target: Muscarinic acetylcholine receptor M1 (Homo sapiens) (UniProt P11229); experiment: Cholinergic receptor muscarinic 1 (CHRM1) small molecule agonists, cell-based qHTS assay (AID 1963589); details: CHRM1-CHO cells, agonist mode, calcium flux fluorescence; activation: at 76.8 µM (top of the series); further: potency means the concentration at half of the fitted maximal effect; nearly all actives have a fitted effect of over 35% in size
# Method in brief: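 Agonist-mode qHTS in CHO cells stably carrying human muscarinic M1. Intracellular calcium is tracked by fluorescence every second after compound transfer; each compound runs at 15 concentrations in three independent runs.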
# [13] = target: D(2) dopamine receptor (Homo sapiens) (UniProt P14416); experiment: Dopamine D2 receptor (DRD2) small molecule antagonists, cell-based qHTS assay (AID 1963595; active means well fitted inhibition curve with a large enough effect in the signal ratio in the repeat runs, with a control signal flat; inconclusive means weak or mixed curves, or effect the other way; the % refers to the signal ratio; further: on the % scale 0 is the no-effect control and ±100 the full control effect); details: HEK293-DRD2 cAMP HTRF antagonist mode; activity change, negative = inhibition: at 92.4 µM (top of the series) unless noted
# Method in brief: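 HEK293 cells stably expressing DRD2 were preincubated with 0.1 mM Ro20-1724, then with compound for 10 min at room temperature. Cells were stimulated with 200 nM NKH477 plus 12 nM quinpirole for 30 min, and cAMP was read by HTRF.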
# [14] = target: 5-hydroxytryptamine receptor 2A (Homo sapiens) (UniProt P28223); experiment: 5-hydroxytryptamine receptor 2A (HTR2A) small molecule antagonists, cell-based qHTS assay (AID 1963586); further: on the % scale 0 is the no-effect control and ±100 the full control effect; nearly all actives have a fitted effect of over 45% in size
# Method in brief: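 Antagonist-mode intracellular calcium assay: DOI (4 nM) added after 5 min compound pre-incubation at room temperature to dye-loaded HTR2A-CHO cells. Fluorescence followed for 3 min, sampled every second.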
# [15] = activation: at 92.4 µM (top of the series) unless noted
smiles,measurement,setting,value
S=C=Nc1ccccc1,Potency,[1],inconclusive: 70.8 µM [activator]
same,Potency,[2],inactive
same,"activity change, negative = inhibition",[3],inconclusive: 6.94%
same,activation,[4]; [15],inconclusive: 7.89%
CCNc1nc(NC(C)(C)C)nc(SC)n1,Potency,[1],"inconclusive: 67.7 µM [activator, single point] and inconclusive: 68.6 µM [activator, single point]"
same,Potency,[2],"inactive and inconclusive: 45.8 µM [cytotoxic, single point]"
same,Potency,[5],"inconclusive: 1.01 µM [cytotoxic, single point]"
same,Potency,[6],inactive
same,Potency,[7],"inconclusive: 30.5 µM [activator, single point] and inconclusive: 54.9 µM [activator, single point]"
same,Potency,[8],"inconclusive: 61.1 µM [rising, partial curve, poor fit]"
same,Potency,[9],"inconclusive: 54.5 µM [inhibitor, partial curve]"
same,activation,[4]; [15],inconclusive: -36% and inconclusive: -78.1%
CCCCCCCCCCCC#N,Potency,[1],"inconclusive: 71 µM [activator, single point]"
same,Potency,[5],"inconclusive: 18.4 µM [rising, single point]"
same,Potency,[6],"inconclusive: 1.89 µM [falling, single point]"
same,activation,[6],inconclusive: 3.84%
same,Potency,[8],inactive
CCCCN(CC)c1c([N+](=O)[O-])cc(C(F)(F)F)cc1[N+](=O)[O-],Potency,[1],"inconclusive: 24.7 µM [activator, partial curve]"
same,Potency,[10],"inconclusive: 45.8 µM [rising, partial curve, poor fit]"
same,Potency,[4]; [15],inactive
CCCCN(CCCC)C(=S)[S-].CCCCN(CCCC)C(=S)[S-].[Zn+2],Potency,[1],active: 1.93 µM
same,Potency,[2],active: 3.63 µM
same,Potency,[5],active: 25.7 µM
same,Potency,[11],"inconclusive: 16.7 µM [inhibitor, single point]"
same,Potency,[12],active: 19.5 µM
same,Potency,[8],"inconclusive: 54.4 µM [rising, single point]"
same,Potency,[3],active: 21.7 µM
same,activation,[4]; [15],inconclusive: -22.5%
N#CCc1ccc(Cl)cc1,Potency,[1],inactive
same,Potency,[2],"inconclusive: 0.162 µM [cytotoxic, single point]"
same,activation,[4]; [15],inconclusive: 11.1%
C=CC(=O)OCCO,Potency,[1],inconclusive: 61.1 µM [activator]
same,Potency,[2],inactive
same,Potency,[6],"inconclusive: 10.4 µM [falling, single point]"
same,activation,[4]; [15],inconclusive: 1.74%
same,activation,[4]; at 92.4 µM (top of the series),inactive: 0%
CCC(C)(C)c1ccc(O)cc1,Potency,[1],"inconclusive: 61.1 µM [activator, single point]"
same,Potency,[2],"inconclusive: 51.9 µM [cytotoxic, single point]"
same,Potency,[6],inactive
same,Potency,[7],"inconclusive: 26.8 µM [activator, partial curve, poor fit]"
same,"activity change, negative = inhibition",[9],inconclusive: -27.8% [at 42.5 µM]
same,Potency,[4]; [15],"inconclusive: 550 nM [inhibitor, single point] and inactive"
same,Potency,[13],inactive
NNC(=O)c1cccnc1,Potency,[1],"inconclusive: 61.3 µM [activator, partial curve]"
same,Potency,[10],inactive
same,activation,[4]; [15],inconclusive: 0.968%
Sc1ccccc1Cl,Potency,[1],inactive
same,Potency,[10],inactive
same,Potency,[8],inactive
CC(=O)C(Cl)C(=O)N(C)C (stereo unspecified),Potency,[1],active: 68.6 µM
same,Potency,[10],"inconclusive: 51.3 µM [cytotoxic, single point]"
same,Potency,[14],inactive
same,Potency,[3],inactive
same,Potency,[4]; [15],inactive
O=C(O)c1ccc(=O)[nH]c1,Potency,[1],inactive
same,Potency,[2],inactive
CCC(C)c1cccc(C(C)CC)c1O (stereo unspecified),Potency,[1],"inconclusive: 61.1 µM [activator, partial curve, poor fit]"
same,Potency,[2],"inconclusive: 25.7 µM [cytotoxic, partial curve, poor fit]"
same,Potency,[8],"inconclusive: 27.3 µM [rising, full curve]"
same,Potency,[3],"inconclusive: 21.7 µM [rising, full curve]"
same,activation,[4]; [15],inconclusive: -1.15%
C=CC(N)=O,Potency,[1],"inconclusive: 0.0486 µM [activator, single point]"
same,Potency,[2],"inconclusive: 10.3 µM [cytotoxic, single point]"
same,activation,[4]; [15],inconclusive: -0.946%
same,activation,[4]; at 92.4 µM (top of the series),inactive: 0.123%
same,"activity change, negative = inhibition",[13],inconclusive: 9.81%
CC1CCCCC1NC(=O)Nc1ccccc1 (stereo unspecified),Potency,[1],"inconclusive: 34.4 µM [activator, partial curve, poor fit]"
same,Potency,[2],"inconclusive: 51.3 µM [rising, single point]"
same,Potency,[5],"inconclusive: 20.4 µM [rising, full curve]"
same,Potency,[6],"inconclusive: 28.9 µM [rising, partial curve, poor fit]"
same,Potency,[4]; [15],inactive
Cn1[nH]nnc1=S,Potency,[1],"inconclusive: 54.5 µM [activator, partial curve, poor fit]"
same,Potency,[10],inactive
same,activation,[6],inconclusive: 13.7%
same,"activity change, negative = inhibition",[9],inconclusive: -30.4%
same,activation,[4]; [15],inconclusive: 18.3%
